Laboratory results reported in PMC9243396.
Changes are numbered by the printed parent chain. No constants are given. Whether binding was seen depends on the method and setting. Some entries that bind do so weakly or less than the wild type. Tags and fused reporters may be left off the sequences shown.

B1: S. cerevisiae Msh2 fused to the Gal4 transcriptional activation domain (prey) (protein, UniProt P25847 2-964)
chain: SSTRPELKFSDVSEERNFYKKYTGLPKKPLKTIRLVDKGDYYTVIGSDAIFVADSVYHTQSVLKNCQLDPVTAKNFHEPTKYVTVSLQVLATLLKLCLLDLGYKVEIYDKGWKLIKSASPGNIEQVNELMNMNIDSSIIIASLKVQWNSQDGNCIIGVAFIDTTAYKVGMLDIVDNEVYSNLESFLIQLGVKECLVQDLTSNSNSNAEMQKVINVIDRCGCVVTLLKNSEFSEKDVELDLTKLLGDDLALSLPQKYSKLSMGACNALIGYLQLLSEQDQVGKYELVEHKLKEFMKLDASAIKALNLFPQGPQNPFGSNNLAVSGFTSAGNSGKVTSLFQLLNHCKTNAGVRLLNEWLKQPLTNIDEINKRHDLVDYLIDQIELRQMLTSEYLPMIPDIRRLTKKLNKRGNLEDVLKIYQFSKRIPEIVQVFTSFLEDDSPTEPVNELVRSVWLAPLSHHVEPLSKFEEMVETTVDLDAYEENNEFMIKVEFNEELGKIRSKLDTLRDEIHSIHLDSAEDLGFDPDKKLKLENHHLHGWCMRLTRNDAKELRKHKKYIELSTVKAGIFFSTKQLKSIANETNILQKEYDKQQSALVREIINITLTYTPVFEKLSLVLAHLDVIASFAHTSSYAPIPYIRPKLHPMDSERRTHLISSRHPVLEMQDDISFISNDVTLESGKGDFLIITGPNMGGKSTYIRQVGVISLMAQIGCFVPCEEAEIAIVDAILCRVGAGDSQLKGVSTFMVEILETASILKNASKNSLIIVDELGRGTSTYDGFGLAWAIAEHIASKIGCFALFATHFHELTELSEKLPNVKNMHVVAHIEKNLKEQKHDDEDITLLYKVEPGISDQSFGIHVAEVVQFPEKIVKMAKRKANELDDLKTNNEDLKKAKLSLQEVNEGNIRLKALLKEWIRKVKEEGLHDPSKITEEASQHKIQELLRAIANEPEKENDNYLKYIKALLL
B2: S. cerevisiae Mlh1 fused to the Gal4 transcriptional activation domain (prey) (protein, UniProt P38920 2-769)
chain: SLRIKALDASVVNKIAAGEIIISPVNALKEMMENSIDANATMIDILVKEGGIKVLQITDNGSGINKADLPILCERFTTSKLQKFEDLSQIQTYGFRGEALASISHVARVTVTTKVKEDRCAWRVSYAEGKMLESPKPVAGKDGTTILVEDLFFNIPSRLRALRSHNDEYSKILDVVGRYAIHSKDIGFSCKKFGDSNYSLSVKPSYTVQDRIRTVFNKSVASNLITFHISKVEDLNLESVDGKVCNLNFISKKSISPIFFINNRLVTCDLLRRALNSVYSNYLPKGNRPFIYLGIVIDPAAVDVNVHPTKREVRFLSQDEIIEKIANQLHAELSAIDTSRTFKASSISTNKPESLIPFNDTIESDRNRKSLRQAQVVENSYTTANSQLRKAKRQENKLVRIDASQAKITSFLSSSQQFNFEGSSTKRQLSEPKVTNVSHSQEAEKLTLNESEQPRDANTINDNDLKDQPKKKQKLGDYKVPSIADDEKNALPISKDGYIRVPKERVNVNLTSIKKLREKVDDSIHRELTDIFANLNYVGVVDEERRLAAIQHDLKLFLIDYGSVCYELFYQIGLTDFANFGKINLQSTNVSDDIVLYNLLSEFDELNDDASKEKIISKIWDMSSMLNEYYSIELVNDGLDNDLKSVKLKSLPLLLKGYIPSLVKLPFFIYRLGKEVDWEDEQECLDGILREIALLYIPDMVPKVDTSDASLSEDEKAQFINRKEHISSLLEHVLFPCIKRRFLAPRHILKDVVEIANLPDLYKVFERC

What was measured:
Test in all cases: two-hybrid; LexA DNA-binding domain bait (pBTM116) and GAL4 activation domain prey (pACT2) co-transformed into S. cerevisiae L40; growth of 10-fold serial dilutions on CSM -Leu -Trp -His
[1] = target: T1, Rad5-MIPΔ (7-EERKRFF-13 mutated to 7-EERKRAA-13) fused to the LexA DNA-binding domain (bait) (S. cerevisiae) (UniProt P32849)
T1 sequence: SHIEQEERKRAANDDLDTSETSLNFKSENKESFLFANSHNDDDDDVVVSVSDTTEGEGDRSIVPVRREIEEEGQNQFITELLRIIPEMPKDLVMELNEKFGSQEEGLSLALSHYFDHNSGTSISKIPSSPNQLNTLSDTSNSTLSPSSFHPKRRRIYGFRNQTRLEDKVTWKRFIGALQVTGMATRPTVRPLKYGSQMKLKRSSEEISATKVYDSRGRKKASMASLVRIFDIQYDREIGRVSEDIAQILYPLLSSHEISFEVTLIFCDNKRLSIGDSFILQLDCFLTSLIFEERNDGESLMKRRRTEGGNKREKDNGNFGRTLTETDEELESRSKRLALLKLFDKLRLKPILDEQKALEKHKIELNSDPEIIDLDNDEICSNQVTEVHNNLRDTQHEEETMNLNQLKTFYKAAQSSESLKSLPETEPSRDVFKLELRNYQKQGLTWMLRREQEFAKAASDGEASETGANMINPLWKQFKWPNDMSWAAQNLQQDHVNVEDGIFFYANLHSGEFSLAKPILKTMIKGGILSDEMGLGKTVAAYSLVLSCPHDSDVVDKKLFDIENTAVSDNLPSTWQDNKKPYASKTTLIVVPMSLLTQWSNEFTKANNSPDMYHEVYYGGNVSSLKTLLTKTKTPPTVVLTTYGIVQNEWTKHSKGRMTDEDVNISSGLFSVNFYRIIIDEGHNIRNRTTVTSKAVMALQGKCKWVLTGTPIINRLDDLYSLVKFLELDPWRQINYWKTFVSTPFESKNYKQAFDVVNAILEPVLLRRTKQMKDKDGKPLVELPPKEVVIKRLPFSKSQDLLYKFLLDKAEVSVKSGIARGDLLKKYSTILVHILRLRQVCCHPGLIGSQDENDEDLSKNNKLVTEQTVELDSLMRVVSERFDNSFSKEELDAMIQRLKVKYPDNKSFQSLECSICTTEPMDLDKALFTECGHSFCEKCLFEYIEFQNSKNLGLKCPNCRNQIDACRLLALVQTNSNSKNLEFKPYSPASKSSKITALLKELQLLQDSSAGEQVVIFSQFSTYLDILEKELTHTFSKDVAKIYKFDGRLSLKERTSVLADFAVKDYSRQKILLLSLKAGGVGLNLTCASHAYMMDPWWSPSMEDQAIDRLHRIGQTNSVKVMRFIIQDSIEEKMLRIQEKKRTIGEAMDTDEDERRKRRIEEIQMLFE

[2] = target: T2, S. cerevisiae Rad5 fused to the LexA DNA-binding domain (bait) (S. cerevisiae) (UniProt P32849)
T2 sequence: T1 sequence with A11F, A12F

[3] = target: T3, Rad5-SHIPΔ (30-NKESFLF-36 mutated to 30-NKESALA-36) fused to the LexA DNA-binding domain (bait) (S. cerevisiae) (UniProt P32849)
T3 sequence: T1 sequence with A11F, A12F, F33A, F35A

Binder	binding [1]	binding [2]	binding [3]
B1	binds	binds	binds
B2	no binding	binds	binds
